Data taken from PubChem BioAssay AID687020 (Broad Institute, 2013).
Only a part is listed here, and it is no random draw. Results with a measured potency or affinity are listed apart. Active and inactive are the calls of the source. How the calls were made is not given here.

Test: viability loss in Vero cells – cell-based, plate reader, cherry-pick samples, cytotoxicity control, dose response (AID 687020);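 further: compounds incubated with cells for three days before luminescence read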
Details: at 19.5 µM (top of the series)

Row | Structure (SMILES) | activity change, negative = toxicity
1 | CCCCCCCCc1ccc(O)cc1 | inactive: -21.8%
